This note sets out measurements from article PMC5223110.

By UniProt entry, the sequences of proteins in these tests, tags left out.
UniProt Q96GD4: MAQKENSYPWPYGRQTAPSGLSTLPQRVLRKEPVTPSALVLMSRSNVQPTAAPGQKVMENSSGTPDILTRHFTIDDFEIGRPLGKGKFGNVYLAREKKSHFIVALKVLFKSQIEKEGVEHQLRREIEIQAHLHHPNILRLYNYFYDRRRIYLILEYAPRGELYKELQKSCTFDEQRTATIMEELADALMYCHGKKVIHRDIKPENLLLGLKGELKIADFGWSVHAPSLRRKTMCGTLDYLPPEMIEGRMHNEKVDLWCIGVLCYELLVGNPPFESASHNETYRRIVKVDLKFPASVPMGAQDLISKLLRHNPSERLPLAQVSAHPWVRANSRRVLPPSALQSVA
UniProt P53350: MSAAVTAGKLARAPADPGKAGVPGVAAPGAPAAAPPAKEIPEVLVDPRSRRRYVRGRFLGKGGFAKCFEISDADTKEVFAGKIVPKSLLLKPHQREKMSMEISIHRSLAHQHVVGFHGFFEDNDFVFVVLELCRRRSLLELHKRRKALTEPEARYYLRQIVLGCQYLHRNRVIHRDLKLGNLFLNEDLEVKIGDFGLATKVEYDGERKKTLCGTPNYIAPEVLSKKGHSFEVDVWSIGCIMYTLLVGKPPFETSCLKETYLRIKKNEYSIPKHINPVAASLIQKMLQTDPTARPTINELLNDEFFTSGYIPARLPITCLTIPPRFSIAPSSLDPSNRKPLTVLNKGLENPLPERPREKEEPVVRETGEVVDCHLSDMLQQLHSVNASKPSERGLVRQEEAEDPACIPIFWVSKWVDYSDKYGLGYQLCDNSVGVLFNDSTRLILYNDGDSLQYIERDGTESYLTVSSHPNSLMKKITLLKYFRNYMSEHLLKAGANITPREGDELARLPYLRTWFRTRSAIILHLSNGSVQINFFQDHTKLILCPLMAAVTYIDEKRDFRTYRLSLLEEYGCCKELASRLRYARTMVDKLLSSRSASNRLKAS
UniProt Q9NQS7: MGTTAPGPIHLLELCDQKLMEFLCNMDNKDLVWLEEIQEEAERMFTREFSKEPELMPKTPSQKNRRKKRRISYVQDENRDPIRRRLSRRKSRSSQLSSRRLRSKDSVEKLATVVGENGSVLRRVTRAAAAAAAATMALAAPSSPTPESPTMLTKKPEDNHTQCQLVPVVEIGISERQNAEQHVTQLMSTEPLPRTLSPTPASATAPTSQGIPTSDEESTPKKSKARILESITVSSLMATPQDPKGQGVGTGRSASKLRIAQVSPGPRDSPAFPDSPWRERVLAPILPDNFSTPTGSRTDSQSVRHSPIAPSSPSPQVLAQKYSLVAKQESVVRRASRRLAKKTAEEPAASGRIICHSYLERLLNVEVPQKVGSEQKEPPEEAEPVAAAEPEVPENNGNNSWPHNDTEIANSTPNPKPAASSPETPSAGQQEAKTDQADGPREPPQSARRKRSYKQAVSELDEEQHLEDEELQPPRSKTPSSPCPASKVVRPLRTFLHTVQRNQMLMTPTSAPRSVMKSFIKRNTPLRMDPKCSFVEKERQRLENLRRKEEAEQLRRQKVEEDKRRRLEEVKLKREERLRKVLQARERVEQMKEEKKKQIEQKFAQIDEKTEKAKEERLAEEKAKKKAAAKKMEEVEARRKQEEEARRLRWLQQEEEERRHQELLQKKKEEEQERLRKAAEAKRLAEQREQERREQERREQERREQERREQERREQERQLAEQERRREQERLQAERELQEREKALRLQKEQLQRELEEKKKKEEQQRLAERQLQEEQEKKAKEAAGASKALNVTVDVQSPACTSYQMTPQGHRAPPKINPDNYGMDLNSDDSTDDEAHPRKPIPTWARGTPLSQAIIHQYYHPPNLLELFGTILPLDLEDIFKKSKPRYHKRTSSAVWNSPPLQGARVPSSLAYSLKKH

Results are given in words; binding and its absence hold for the method and conditions named. For some assays here: Binding seen in cells or lysates may run through a third protein. Some results given as binding are weak or reduced against the parent protein; the word gives no strength. Tags and fused reporters may be left off the sequences shown.

In one assay the target is Flag-tagged Aurora-B (UniProt Q96GD4). Nature of the assay: co-IP; Flag-Aurora-B co-expressed with GFP-tagged partner; 0.5 μM nocodazole with DMSO or Aurora-A inhibitor (MLN8237) for 2 h before harvest; co-IP with FLAG beads.
The target of assay [1] is T1, Glutathione S-transferase (GST)-fused Aurora-A (UniProt O14965).
T1 sequence: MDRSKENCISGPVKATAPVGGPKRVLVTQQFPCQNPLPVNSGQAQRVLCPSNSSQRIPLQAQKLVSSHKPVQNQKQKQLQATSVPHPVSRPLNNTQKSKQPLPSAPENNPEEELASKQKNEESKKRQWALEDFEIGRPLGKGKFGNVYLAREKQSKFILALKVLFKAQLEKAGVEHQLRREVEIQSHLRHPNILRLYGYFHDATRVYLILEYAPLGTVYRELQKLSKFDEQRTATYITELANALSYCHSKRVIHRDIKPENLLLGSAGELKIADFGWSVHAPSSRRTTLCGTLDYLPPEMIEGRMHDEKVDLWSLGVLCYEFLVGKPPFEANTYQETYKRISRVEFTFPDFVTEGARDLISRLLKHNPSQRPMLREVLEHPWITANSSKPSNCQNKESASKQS
Nature of the assay: pull-down; GST pull-down: GST-Aurora-A held on resin, purified MBP-Haspin incubated 2 h at 4 °C, eluted with 10 mM GSH in 50 mM Tris pH 8.0; MBP-Haspin detected with a Haspin antibody; both purified.

For a further assay, the target named is T2, Flag-tagged Aurora-A (UniProt O14965).
T2 sequence: T1 sequence
Briefly: co-IP; HEK293T cells co-transfected with Flag-tagged and GFP-tagged protein; co-IP buffer 50 mM Tris HCl pH 7.4, 250 mM NaCl, 1 mM EDTA, 50 mM NaF, 0.5% Triton X-100; anti-Flag M2 resin; GFP antibody blot.

Take “GFP-Plk1 (from UniProt P53350 1-603) (enzyme)”: the binding entry with Flag-tagged Aurora-B is “binds”.

As for “wt-INCENP-EGFP (from UniProt Q9NQS7 1-918)”, in the assay with Flag-tagged Aurora-B, the binding result is “binds”.

B1: Maltose-binding protein (MBP)-fused Haspin (enzyme, UniProt Q8TF76 1-798)
chain: MAASLPGPGSRLFRTYGAADGRRQRRPGREAAQWFPPQDRRRFFNSSGSSDASIGDPSQSDDPDDPDDPDFPGSPVRRRRRRPGGRVPKDRPSLTVTPKRWKLRARPSLTVTPRRLGLRARPPQKCSTPCGPLRLPPFPSRDSGRLSPDLSVCGQPRDGDELGISASLFSSLASPCPGSPTPRDSVISIGTSACLVAASAVPSGLHLPEVSLDRASLPCSQEEATGGAKDTRMVHQTRASLRSVLFGLMNSGTPEDSEFRADGKNMRESCCKRKLVVGNGPEGPGLSSTGKRRATGQDSCQERGLQEAVRREHQEASVPKGRIVPRGIDRLERTRSSRKSKHQEATETSLLHSHRFKKGQKLGKDSFPTQDLTPLQNVCFWTKTRASFSFHKKKIVTDVSEVCSIYTTATSLSGSLLSECSNRPVMNRTSGAPSSWHSSSMYLLSPLNTLSISNKKASDAEKVYGECSQKGPVPFSHCLPTEKLQRCEKIGEGVFGEVFQTIADHTPVAIKIIAIEGPDLVNGSHQKTFEEILPEIIISKELSLLSGEVCNRTEGFIGLNSVHCVQGSYPPLLLKAWDHYNSTKGSANDRPDFFKDDQLFIVLEFEFGGIDLEQMRTKLSSLATAKSILHQLTASLAVAEASLRFEHRDLHWGNVLLKKTSLKKLHYTLNGKSSTIPSCGLQVSIIDYTLSRLERDGIVVFCDVSMDEDLFTGDGDYQFDIYRLMKKENNNRWGEYHPYSNVLWLHYLTDKMLKQMTFKTKCNTPAMKQIKRKIQEFHRTMLNFSSATDLLCQHSLFK
Turning to B1, in assay [1], the binding entry is “binds”.

B2: Green fluorescent protein (GFP)-fused Haspin (enzyme, UniProt Q8TF76 1-798)
chain: B1 chain
Consider B2, for which the binding result with Flag-tagged Aurora-A is listed as “binds”.

B3: Haspin-N-EGFP (domain or fragment, UniProt Q8TF76 1-350)
chain: MAASLPGPGSRLFRTYGAADGRRQRRPGREAAQWFPPQDRRRFFNSSGSSDASIGDPSQSDDPDDPDDPDFPGSPVRRRRRRPGGRVPKDRPSLTVTPKRWKLRARPSLTVTPRRLGLRARPPQKCSTPCGPLRLPPFPSRDSGRLSPDLSVCGQPRDGDELGISASLFSSLASPCPGSPTPRDSVISIGTSACLVAASAVPSGLHLPEVSLDRASLPCSQEEATGGAKDTRMVHQTRASLRSVLFGLMNSGTPEDSEFRADGKNMRESCCKRKLVVGNGPEGPGLSSTGKRRATGQDSCQERGLQEAVRREHQEASVPKGRIVPRGIDRLERTRSSRKSKHQEATETSL
On to B3, for which the binding entry in the assay with Flag-tagged Aurora-B was “binds”.
